Laboratory results reported in paper PMC10876309, “Two Main Cancer Biomarkers as Molecular Targets of Binase Antitumor Activity” (BioMed Research International, 2024).
No constants are given. Whether binding was seen depends on the method and setting. Binding seen in cells or lysates may run through a third protein. Some binding calls cover weakened binding; strength is not graded here.

Molecular target: epidermal growth factor receptor (EGFR) (human (endogenous in BT-20)) (UniProt P00533)
Assay: co-IP; 20 μg purified binase incubated with 1000 μg cell protein lysate for 15 min at 37°C; anti-EGFR (sc-120, BT-20 lysate) or anti-pan Ras (sc-166691, ROSE 199 A2/5 lysate) or control IgG overnight at 4°C; Protein A/G Sepharose beads; blot with anti-binase antibodies; only the binder purified

B1: binase, ribonuclease from Bacillus pumilus (enzyme, UniProt P00649 54-162, looked up)
chain: AVINTFDGVADYLIRYKRLPDNYITKSQASALGWVASKGNLAEVAPGKSIGGDVFSNREGRLPSASGRTWREADINYVSGFRNADRLVYSSDWLIYKTTDHYATFTRIR
notes: binase, ribonuclease of Bacillus pumilus, 12.3 kDa, pI 9.5; also called bacterial ribonuclease binase; cytotoxic ribonuclease from Bacillus pumilus; source: purified as described earlier [21, 22]
- binding: binds
